Results are given in words; binding and its absence hold for the method and conditions named. Some entries that bind do so weakly or less than the wild type.
Target: amyloid plaques in unfixed human AD brain sections (human) (UniProt P05067)
Assay: immunohistochemistry, unfixed human AD brain sections

Chains of the proteins cited; added tags and fusions are not shown. Lines headed by an entry give the natural chain unless they say otherwise; changes in a name come on top.
UniProt P05067: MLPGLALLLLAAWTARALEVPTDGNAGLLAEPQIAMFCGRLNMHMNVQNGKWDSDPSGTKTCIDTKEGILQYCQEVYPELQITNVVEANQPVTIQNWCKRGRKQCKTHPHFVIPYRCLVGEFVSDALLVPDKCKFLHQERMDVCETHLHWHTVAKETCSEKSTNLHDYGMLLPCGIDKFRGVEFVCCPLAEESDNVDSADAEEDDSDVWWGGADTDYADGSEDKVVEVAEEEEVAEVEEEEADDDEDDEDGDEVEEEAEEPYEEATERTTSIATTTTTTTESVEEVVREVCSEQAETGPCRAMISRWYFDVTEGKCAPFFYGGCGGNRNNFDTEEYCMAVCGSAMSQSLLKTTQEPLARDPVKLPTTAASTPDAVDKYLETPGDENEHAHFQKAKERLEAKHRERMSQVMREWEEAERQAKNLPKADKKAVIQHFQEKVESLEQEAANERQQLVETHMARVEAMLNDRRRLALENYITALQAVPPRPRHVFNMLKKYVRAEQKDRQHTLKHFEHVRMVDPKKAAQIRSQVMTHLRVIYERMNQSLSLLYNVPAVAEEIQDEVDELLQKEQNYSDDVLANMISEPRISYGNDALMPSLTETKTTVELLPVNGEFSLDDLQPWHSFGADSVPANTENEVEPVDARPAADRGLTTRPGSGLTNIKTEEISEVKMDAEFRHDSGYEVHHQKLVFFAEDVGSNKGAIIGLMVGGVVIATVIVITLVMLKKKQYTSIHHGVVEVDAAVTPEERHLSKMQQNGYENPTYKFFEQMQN

binding: binds
B1: antibody 1.2 (antibody, human IgG1, kappa, V domains shown)
VH: QVTLKESGPVLLKPTETLTLTCTVSGFSLSNARMGVSWIRQPPGKALEWLAHIFSNDEKSYITSLKSRLTISKDTSKSQVVLTMTNMDPVDTATYYCARIPLRSPGAFDIWGQGTMVTVSS
VL: DIVMTQTPLSSPVTLGQPASISCRSSQSLVHSDGNTYLNWLQQRPGQPPRLLIYKISNRFSGVPDRFTGSGAGTDFTLKISRVEAEDVGVYTCMQVTQFPLTFGQGTRLEIKR

Source: patent US20110044986A1
